Source: patent publication US7488592
Results are given in words; binding and its absence hold for the method and conditions named. For some of these results: Binding seen in cells or lysates may run through a third protein. Some binding calls cover weakened binding; strength is not graded here.

The chains behind the UniProt entries cited, without tags or fusion partners. Where a name states a change or a piece, a line headed by the entry shows the natural chain unless it says otherwise.
UniProt Q7Z5G4: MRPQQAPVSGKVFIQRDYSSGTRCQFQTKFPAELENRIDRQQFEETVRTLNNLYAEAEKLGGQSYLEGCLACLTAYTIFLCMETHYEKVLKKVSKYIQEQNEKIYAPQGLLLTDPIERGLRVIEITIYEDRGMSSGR
UniProt Q9Y397: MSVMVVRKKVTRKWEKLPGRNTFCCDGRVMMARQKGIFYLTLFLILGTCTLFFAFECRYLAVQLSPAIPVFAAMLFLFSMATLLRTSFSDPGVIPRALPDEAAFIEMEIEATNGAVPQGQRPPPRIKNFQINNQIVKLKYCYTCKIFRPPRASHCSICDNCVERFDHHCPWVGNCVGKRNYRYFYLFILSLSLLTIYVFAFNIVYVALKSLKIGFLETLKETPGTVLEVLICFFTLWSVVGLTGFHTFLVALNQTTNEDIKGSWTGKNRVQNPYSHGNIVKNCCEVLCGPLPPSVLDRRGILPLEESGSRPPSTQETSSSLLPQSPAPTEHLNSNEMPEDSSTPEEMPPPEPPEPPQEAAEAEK

Legend:
[1] = target: Flag-hErf4 (hE4-1) (human) (UniProt Q7Z5G4); assay: co-immunoprecipitation from HEK-293 whole cell extracts, reciprocal anti-GFP and anti-Flag IP and blots
[2] = target: Flag-hErf4 (hE4-1) (human) (UniProt Q7Z5G4); assay: co-immunoprecipitation from HEK-293 cell extracts (anti-GFP or anti-Flag IP, immunoblot)
GST-hErf4 (human) [3] = assay: co-purification from insect cells (data not shown); complex then purified by metal chelate and glutathione agarose
GST-hErf4 (human) [4] = assay: sequential Ni and glutathione affinity chromatography from SF9 membrane extract, Coomassie gel and anti-myc/anti-GST blots

binding [1]	binding [2]	binding (GST-hErf4 (human) [3])	binding (GST-hErf4 (human) [4])	Substance
binds	binds			hErf2-GFP (hE2-1/DHHC9) (from UniProt Q9Y397 1-364) (enzyme)
		binds	binds	hErf2-Myc-His (from UniProt Q9Y397 1-364) (enzyme)
